This passage reports binding results from paper PMC9519968.

Sequences of proteins named here, by UniProt entry; tags and fusion partners are left off.
UniProt Q9WTM5: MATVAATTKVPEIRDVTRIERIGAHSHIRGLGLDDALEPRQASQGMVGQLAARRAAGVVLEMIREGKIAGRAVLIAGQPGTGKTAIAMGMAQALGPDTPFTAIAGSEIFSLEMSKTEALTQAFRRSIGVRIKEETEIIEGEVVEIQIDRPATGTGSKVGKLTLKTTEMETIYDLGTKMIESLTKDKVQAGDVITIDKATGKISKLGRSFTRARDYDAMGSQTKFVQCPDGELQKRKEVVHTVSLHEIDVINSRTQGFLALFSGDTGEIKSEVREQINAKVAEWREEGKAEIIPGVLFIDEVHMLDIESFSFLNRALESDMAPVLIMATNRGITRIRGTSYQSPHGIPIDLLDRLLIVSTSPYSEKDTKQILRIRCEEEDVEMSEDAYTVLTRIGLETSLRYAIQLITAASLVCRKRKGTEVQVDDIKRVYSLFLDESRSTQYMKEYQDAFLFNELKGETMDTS
UniProt P60122: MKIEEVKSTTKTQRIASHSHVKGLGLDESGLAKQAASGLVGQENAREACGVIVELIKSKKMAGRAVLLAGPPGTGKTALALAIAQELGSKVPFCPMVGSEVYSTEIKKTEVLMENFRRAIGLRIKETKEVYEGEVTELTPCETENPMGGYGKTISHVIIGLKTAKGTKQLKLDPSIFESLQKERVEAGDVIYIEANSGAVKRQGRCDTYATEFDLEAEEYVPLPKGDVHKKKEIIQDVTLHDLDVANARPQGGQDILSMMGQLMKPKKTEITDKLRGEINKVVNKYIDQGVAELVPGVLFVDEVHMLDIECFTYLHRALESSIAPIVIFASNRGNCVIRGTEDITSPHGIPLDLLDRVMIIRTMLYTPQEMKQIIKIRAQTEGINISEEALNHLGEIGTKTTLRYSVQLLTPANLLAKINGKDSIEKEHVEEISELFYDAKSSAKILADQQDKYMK

No constants are given. Whether binding was seen depends on the method and setting. Some binding calls cover weakened binding; strength is not graded here.

The target in the experiment is recombinant His-RUVBL2 (UniProt Q9WTM5). In words: co-purification by the His tag of one subunit (Ni-NTA) + SEC; RUVBL1 (no His-tag) and His-RUVBL2 co-expressed in E. coli; Ni-NTA agarose, then Superdex S200; fractions of about 300-600 kDa collected.

On to “recombinant RUVBL1 (no His-tag) (from UniProt P60122 1-456)”, for which the binding result is listed as “binds”.
